Test results: the supplement of paper PMC11006884
This list holds what a sample rich in targets with a hit left over. Single values of this set are uncertain. This is a selection; strong and weak results do not stand in their true shares.

Amino acid sequences for entries named in this document (tags omitted). A change or cut given only in a name is not applied to a line headed by its entry.
UniProt P55072, whole entry, looked up: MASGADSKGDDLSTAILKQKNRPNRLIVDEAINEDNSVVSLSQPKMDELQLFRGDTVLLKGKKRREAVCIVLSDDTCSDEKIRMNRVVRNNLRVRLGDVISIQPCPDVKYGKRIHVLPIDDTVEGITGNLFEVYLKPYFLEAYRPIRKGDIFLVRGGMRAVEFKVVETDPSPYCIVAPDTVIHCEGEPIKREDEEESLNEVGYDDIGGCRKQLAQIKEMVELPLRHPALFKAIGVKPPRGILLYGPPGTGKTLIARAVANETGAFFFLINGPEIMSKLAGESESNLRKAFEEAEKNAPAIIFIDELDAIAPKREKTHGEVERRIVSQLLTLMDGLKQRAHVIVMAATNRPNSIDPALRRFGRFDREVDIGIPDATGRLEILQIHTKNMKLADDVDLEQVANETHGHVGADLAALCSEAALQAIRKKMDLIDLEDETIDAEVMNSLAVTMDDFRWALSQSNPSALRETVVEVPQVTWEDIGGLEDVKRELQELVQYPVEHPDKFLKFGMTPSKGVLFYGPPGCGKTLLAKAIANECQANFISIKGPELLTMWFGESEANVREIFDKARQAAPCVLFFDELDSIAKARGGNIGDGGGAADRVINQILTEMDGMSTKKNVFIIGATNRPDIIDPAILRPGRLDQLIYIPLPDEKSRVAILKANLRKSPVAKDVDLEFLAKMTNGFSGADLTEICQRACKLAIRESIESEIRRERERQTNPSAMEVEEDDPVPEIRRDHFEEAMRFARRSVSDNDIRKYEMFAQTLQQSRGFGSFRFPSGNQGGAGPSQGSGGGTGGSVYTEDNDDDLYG
UniProt P54132: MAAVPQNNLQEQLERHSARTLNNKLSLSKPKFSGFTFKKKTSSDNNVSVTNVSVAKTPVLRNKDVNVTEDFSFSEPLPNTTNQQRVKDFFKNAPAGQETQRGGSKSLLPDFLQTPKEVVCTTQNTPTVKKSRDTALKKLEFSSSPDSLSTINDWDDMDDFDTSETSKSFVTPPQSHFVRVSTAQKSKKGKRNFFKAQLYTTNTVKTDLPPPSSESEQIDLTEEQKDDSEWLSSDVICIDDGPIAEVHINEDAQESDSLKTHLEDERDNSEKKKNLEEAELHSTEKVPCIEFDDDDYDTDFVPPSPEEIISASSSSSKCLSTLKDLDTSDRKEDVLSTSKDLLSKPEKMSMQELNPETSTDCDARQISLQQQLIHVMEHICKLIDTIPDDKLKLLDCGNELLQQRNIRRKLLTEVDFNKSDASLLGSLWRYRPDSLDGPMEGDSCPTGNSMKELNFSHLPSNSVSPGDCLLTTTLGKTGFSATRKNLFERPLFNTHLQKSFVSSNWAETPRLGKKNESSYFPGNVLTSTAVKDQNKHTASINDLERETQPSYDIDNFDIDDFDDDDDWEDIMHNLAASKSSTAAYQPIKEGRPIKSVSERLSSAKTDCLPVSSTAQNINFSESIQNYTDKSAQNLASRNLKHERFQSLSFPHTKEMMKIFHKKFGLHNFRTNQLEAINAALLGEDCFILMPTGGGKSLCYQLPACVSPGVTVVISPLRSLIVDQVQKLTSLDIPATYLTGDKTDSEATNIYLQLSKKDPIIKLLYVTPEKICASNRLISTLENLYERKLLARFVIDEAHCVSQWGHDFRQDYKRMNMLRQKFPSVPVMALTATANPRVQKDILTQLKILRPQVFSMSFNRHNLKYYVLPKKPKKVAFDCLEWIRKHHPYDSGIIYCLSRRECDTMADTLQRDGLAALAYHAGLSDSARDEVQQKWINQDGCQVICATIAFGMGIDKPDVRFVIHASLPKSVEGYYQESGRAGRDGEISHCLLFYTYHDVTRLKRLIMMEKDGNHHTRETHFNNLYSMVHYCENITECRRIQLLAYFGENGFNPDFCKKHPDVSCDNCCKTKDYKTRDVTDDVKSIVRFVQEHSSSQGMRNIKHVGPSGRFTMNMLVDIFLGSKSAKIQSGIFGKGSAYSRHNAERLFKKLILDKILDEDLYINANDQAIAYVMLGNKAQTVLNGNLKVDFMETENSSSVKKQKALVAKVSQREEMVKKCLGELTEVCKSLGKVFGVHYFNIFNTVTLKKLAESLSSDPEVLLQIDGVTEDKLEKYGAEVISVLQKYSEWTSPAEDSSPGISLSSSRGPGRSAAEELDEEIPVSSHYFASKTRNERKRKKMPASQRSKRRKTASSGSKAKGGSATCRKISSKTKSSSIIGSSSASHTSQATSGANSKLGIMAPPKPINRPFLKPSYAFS
UniProt P60174, whole entry, looked up: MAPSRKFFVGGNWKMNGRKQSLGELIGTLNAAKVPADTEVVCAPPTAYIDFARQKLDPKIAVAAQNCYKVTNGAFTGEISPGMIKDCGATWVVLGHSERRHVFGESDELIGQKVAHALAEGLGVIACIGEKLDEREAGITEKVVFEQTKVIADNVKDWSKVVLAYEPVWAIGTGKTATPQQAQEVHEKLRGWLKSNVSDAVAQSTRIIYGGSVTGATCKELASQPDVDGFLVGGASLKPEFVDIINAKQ
UniProt P60891: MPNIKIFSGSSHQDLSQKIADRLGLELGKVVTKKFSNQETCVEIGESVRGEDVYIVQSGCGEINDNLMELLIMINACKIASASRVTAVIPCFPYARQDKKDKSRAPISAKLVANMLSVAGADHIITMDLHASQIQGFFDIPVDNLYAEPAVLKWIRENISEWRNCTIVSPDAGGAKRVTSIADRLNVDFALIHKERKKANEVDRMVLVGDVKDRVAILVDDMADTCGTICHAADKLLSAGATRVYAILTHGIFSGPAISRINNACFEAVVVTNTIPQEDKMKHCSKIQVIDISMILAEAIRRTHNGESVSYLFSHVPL
UniProt P52294, whole entry, looked up: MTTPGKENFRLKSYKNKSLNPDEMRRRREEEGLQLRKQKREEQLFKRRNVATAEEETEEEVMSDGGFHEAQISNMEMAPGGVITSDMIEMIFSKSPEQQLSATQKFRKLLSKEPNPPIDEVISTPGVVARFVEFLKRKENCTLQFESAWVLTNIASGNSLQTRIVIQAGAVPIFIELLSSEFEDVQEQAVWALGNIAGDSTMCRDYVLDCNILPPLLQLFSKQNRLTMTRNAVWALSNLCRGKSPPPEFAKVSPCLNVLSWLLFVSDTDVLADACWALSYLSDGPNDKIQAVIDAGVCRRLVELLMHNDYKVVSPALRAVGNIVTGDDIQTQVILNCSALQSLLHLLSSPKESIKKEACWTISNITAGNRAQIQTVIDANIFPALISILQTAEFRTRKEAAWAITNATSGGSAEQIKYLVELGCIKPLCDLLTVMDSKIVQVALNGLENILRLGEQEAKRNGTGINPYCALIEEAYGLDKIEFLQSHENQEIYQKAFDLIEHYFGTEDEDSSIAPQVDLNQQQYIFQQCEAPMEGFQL
UniProt P52948: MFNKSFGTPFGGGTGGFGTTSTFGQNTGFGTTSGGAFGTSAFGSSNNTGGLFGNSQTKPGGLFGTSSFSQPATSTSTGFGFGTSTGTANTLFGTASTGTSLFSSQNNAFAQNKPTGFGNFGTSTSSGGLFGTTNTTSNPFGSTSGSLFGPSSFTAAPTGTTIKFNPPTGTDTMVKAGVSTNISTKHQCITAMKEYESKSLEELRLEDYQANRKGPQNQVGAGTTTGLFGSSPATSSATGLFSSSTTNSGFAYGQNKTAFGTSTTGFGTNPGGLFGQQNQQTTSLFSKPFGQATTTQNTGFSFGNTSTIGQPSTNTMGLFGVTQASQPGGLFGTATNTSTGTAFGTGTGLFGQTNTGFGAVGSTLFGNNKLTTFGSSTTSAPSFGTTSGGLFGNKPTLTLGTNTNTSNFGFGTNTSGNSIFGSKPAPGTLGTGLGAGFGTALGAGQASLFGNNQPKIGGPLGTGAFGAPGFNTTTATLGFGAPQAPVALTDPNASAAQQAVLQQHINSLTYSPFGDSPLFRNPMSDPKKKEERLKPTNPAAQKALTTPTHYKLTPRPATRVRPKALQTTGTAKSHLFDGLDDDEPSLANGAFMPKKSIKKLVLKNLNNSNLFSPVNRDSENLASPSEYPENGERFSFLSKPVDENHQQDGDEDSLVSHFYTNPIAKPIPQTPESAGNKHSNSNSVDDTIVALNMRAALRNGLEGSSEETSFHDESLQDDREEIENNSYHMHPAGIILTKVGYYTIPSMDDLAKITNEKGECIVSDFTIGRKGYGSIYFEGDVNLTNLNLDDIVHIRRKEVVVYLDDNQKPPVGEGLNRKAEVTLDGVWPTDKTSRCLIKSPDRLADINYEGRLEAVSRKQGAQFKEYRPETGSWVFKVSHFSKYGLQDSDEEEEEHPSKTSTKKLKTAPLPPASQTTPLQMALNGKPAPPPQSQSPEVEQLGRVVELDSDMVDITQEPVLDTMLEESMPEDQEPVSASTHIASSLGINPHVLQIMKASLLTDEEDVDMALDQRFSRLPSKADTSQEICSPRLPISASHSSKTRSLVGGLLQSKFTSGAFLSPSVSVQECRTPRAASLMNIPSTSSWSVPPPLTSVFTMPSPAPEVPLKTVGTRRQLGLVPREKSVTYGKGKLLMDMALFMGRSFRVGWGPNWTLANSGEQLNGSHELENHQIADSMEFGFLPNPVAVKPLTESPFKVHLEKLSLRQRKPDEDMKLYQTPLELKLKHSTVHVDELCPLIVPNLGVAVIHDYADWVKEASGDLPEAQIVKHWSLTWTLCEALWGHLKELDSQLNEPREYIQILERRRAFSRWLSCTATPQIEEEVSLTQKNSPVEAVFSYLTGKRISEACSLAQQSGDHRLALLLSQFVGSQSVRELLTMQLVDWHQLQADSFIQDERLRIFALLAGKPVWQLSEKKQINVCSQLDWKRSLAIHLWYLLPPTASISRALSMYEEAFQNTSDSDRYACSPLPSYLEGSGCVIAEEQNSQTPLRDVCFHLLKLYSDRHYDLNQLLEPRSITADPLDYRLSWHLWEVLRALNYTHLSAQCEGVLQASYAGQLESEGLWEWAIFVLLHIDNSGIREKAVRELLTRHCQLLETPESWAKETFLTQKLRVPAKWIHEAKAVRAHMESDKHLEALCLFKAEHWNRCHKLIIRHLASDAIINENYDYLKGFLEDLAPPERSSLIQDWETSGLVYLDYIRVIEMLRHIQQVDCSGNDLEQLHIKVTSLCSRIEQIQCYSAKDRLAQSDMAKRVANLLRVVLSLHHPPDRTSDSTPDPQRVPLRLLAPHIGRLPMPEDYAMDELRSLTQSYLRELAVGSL
UniProt P53384: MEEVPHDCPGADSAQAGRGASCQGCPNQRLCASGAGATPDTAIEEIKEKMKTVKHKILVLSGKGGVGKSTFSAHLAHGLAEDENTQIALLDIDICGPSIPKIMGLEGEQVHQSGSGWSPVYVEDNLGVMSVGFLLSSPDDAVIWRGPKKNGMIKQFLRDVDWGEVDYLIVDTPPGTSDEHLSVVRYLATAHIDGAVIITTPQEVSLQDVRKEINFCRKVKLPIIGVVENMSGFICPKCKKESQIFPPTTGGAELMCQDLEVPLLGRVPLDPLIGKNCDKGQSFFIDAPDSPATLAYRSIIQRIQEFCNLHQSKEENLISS
UniProt P52732: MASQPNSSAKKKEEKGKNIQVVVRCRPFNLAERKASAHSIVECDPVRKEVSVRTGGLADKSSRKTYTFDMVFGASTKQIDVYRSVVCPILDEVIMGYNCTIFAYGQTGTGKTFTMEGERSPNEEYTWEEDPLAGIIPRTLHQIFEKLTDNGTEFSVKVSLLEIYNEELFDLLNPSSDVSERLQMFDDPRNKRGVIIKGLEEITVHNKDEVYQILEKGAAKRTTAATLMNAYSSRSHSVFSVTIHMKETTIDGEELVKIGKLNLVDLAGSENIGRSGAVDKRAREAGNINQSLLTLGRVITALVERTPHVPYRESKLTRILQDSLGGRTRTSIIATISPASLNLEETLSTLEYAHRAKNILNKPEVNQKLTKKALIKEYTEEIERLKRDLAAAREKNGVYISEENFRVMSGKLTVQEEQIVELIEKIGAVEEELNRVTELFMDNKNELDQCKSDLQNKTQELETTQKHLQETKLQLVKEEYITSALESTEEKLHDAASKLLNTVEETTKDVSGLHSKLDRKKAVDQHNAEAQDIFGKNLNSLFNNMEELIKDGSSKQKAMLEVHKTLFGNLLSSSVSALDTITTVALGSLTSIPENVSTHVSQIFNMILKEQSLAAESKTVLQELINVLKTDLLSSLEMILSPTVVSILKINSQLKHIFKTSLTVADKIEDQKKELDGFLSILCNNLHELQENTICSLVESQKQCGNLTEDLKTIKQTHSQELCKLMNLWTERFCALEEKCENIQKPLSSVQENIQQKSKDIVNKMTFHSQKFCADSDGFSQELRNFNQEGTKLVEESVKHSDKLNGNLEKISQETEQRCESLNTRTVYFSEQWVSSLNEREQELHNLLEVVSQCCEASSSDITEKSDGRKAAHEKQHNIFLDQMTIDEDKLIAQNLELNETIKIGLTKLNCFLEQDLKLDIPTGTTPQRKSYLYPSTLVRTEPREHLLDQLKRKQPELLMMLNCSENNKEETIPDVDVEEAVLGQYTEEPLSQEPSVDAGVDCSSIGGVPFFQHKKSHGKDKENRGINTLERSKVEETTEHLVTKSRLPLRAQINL

Compound: COC(=O)/C=C/c1ccccc1 [methyl cinnamate]
Assay: log2 ratio of iodoacetamide-alkyne labeling of the cysteine site, DMSO over compound (competition); higher = stronger covalent engagement of the cysteine by the compound, active = 1 or more
Conditions: 500 µM; treatment time 1 h; system: HEK293T cell lysate
Procedure, shortened: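 HEK293T lysate (2 mg/mL) was treated with DMSO or electrophile (500 µM, 1 h, ambient temperature), then iodoacetamide alkyne (1 h), clicked to sCIP-TMT reagents, pooled, trypsin-digested overnight at 37 °C, streptavidin-enriched and acid-eluted. Peptides were run on Orbitrap Eclipse LC-MS/MS with FAIMS and quantified in FragPipe. The log2 competition ratio per cysteine is mean control-channel over mean compound-channel reporter intensity. Duplicate channels and three replicates were used, and cysteines quantified in only one replicate were excluded.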

log2 ratio of iodoacetamide-alkyne labeling, inactive:
ARHGDIA C79 (UniProt P52565) -0.506, UniProt P55072_C691 -0.0827, BLM C685 (UniProt P54132) -0.133, ACTR3 C235 (UniProt P61158) 0.352, METAP1 C14 (UniProt P53582) 0.393, TPI1 C79 (UniProt P60174) 0.112, UniProt P60891_C230 0.058, KPNA1 C469 (UniProt P52294) 0.158, NUP98 C1068 (UniProt P52948) 0.243, NUBP1 C25 (UniProt P53384) 0.38, COPA C975 (UniProt P53621) 0.123, HK2 C606 (UniProt P52789) -0.0826, BLM C607 (UniProt P54132) 0.144, KIF11 C450 (UniProt P52732) 0.178, UniProt P61160_C20 0.00588
